Measurements from patent publication US9138393B2, “Cosmetic compositions containing substituted azole and methods for improving the appearance of aging skin” (The Proctor & Gamble Company, priority 2013, dated 2015).

The chains behind the UniProt entries cited, without tags or fusion partners.
UniProt P08684, whole entry: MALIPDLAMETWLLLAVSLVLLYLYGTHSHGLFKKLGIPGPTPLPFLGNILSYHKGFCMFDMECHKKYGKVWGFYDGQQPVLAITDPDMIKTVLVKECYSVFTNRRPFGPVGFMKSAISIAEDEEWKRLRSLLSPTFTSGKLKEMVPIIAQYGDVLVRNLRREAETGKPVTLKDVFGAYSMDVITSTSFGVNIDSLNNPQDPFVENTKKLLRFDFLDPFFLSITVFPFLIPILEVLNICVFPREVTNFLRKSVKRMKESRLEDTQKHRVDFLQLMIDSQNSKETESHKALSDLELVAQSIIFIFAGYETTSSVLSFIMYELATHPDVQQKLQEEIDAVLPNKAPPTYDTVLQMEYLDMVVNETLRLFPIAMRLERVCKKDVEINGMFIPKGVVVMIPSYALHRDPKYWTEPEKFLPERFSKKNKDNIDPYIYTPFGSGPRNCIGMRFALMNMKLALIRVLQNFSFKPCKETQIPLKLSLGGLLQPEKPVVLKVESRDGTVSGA

Target: CYP3A4 (Homo sapiens (Human), UniProt P08684)
Assay: In vitro CYP3A4 inhibition assay (P450-GLO Assay kit, Promega)
Conditions: human recombinant CYP3A4, P450-GLO kit

CCCCc1nc(Cl)c(CO)[nH]1
IC50: > 10 µM

The structures given here were assigned with low confidence; some may be wrong.
